{"source": "patent US9974760B2", "about": "“Compositions and methods for treating cancer” (Chemo-Enhanced LLC, priority 2011, dated 2018)", "system": "L3.6 pancreatic cells", "format": "in vivo", "conditions": "inhibitor plus taxol, pancreatic cancer model SCID mice, expected", "experimental": "Treatment was started 4 days after L3.6 cell injection with thrice weekly (3×/wk) intraperitoneal (i.p.) injections of paclitaxel 3.0 mg/ml with or without C6-ceramide (10 mg/ml) for 2 weeks. Mouse survival (FIGS. 2A and 2C), tumor volume (in cm^3; FIG. 2B), mouse body weight (in grams) were recorded (FIG. 2E). The average rate of tumor development was calculated by total tumor volume dividing by total number of days monitored (FIG. 2C).\nSCID/Beige/Taconic nude male mice (22-25 g; 6-8 weeks old) were ear tagged and randomized into 4 different groups (Control, Ceramide, gemcitabine, Ceramide+gemcitabine) combining 5 mice each prior to inoculation subcutaneous (s.c.) with 2×10^6 L3.6 cells in a 0.1 ml volume into the internal surface of the right thigh. […] Mouse survival (FIGS. 3A, 3B, and 3E) and tumor volume (in cm^3; FIGS. 3C and 3D) were recorded (FIG. 3E). […]\nSCID/Beige/Taconic male mice were inoculated with 2×10^6 L3.6 pancreatic cells and treated […] 4 days post tumor implant with thrice weekly (3×/wk) intraperitoneal (I.P.) injections of paclitaxel (taxol) 3.0 mg/ml or gemcitabine (Gem) 10 mg/ml after treatment and were autopsied when near death (as per IRB committee). Mouse survival, tumor volume (in cm^3), and body weight (in grams) were recorded. Average rate of tumor development was calculated by dividing total tumor volume by total number of days monitored. […]", "note": "At least one compound was matched to its structure with a doubt left.", "data": [{"smiles": "CO[C@H]1C[C@@H]2CC[C@@H](C)[C@@](O)(O2)C(=O)C(=O)N2CCCC[C@H]2C(=O)O[C@H]([C@H](C)C[C@@H]2CC[C@@H](O)[C@H](OC)C2)CC(=O)[C@H](C)/C=C(\\C)[C@@H](O)[C@@H](OC)C(=O)[C@H](C)C[C@H](C)/C=C/C=C/C=C/1C", "note": "[rapamycin]", "values": [{"measurement": "Taxol induced cell death in vivo", "value": "enhance"}]}]}
